# PubChem BioAssay AID1259308 – NCATS | 2017
# Assay: 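Candidate targets for better recombinant protein yield in mammalian cells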 (primary screen)
# Cell system: human HEK293 embryonic kidney cells stably expressing firefly luciferase (HEK-CMV-Luc2-Hygro)
# Reagents: single siRNA against human genes, 0.8 pmol siRNA per well
# Time to read-out: 72 h
# Measured: 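Luciferase light (ONE-Glo) measured on one replicate plate set and viability (CellTiter-Glo) on the other, scaled to a negative control siRNA, with robust z-scores and luciferase per cell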
# Reading the numbers: total luciferase, z-score and total luciferase, % of control: higher = more reporter protein produced; luciferase per cell, z-score: higher = more reporter output per viable cell; viable cells, % of control: higher = more viable cells
# Active means: 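Active when the median/MAD z-score for overall luciferase is greater than 3; a gene was taken forward for validation with new siRNAs if at least two of its three siRNAs passed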
# Meaning of the calls: active = raised luciferase; inactive = no rise
# This is an unselected part of about 59,000 reagents tested. About 1,510 of them (2.6%) were called active. 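Calls use total luciferase alone and ignore viability, so some active siRNAs may act by altering cell number.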 Unmarked entries are inactive. The numbers tell different reagents against one gene apart.
target gene,siRNA no.,"total luciferase, z-score","total luciferase, % of control","luciferase per cell, z-score","viable cells, % of control"
ZC3H3,1,-0.217,77.6,1.76,54.5
ZC3H3,2,-0.107,79.8,0.0429,88.1
ZC3H3,3,0.382,89.5,0.216,94.5
PROSER1,1,1.2,106,1.31,83.6
PROSER1,2,4.1 (active),163,2.17,103
PROSER1,3,0.931,100,0.722,92.8
DSCAML1,1,-0.43,73.3,-0.0288,82.6
DSCAML1,2,2.33,128,2.38,76.5
DSCAML1,3,1.53,112,0.91,98.7
CA8,1,0.981,101,1.37,79
CA8,2,-0.139,79.1,-0.014,88.8
CA8,3,1.28,107,0.503,105
CS,1,0.482,91.5,-0.194,108
CS,2,-0.618,69.6,-1.34,111
CS,3,0.902,99.8,-0.114,115
RAB40A,1,-0.324,75.4,-0.574,98.1
RAB40A,2,-2.85,25.2,-4.2,85.1
RAB40A,3,-1.51,51.9,-1.81,93.5
RASSF7,1,-0.256,76.8,-0.148,89.2
RASSF7,2,-0.165,78.6,0.00123,87.8
RASSF7,3,-0.35,74.9,-0.264,89.7
PRELID1P6,1,-3.09,20.4,-4.89,82.4
PRELID1P6,2,0.00289,81.9,0.736,75.4
PRELID1P6,3,0.801,97.8,0.38,98.9
PSMC1,1,-0.0124,81.6,3.86,33
PSMC1,2,1.34,109,2.95,55.7
PSMC1,3,-1.34,55.2,3.85,22.4
CENPE,1,-0.721,67.5,-0.277,81.2
CENPE,2,-0.00336,81.8,-0.4,102
CENPE,3,-0.956,62.9,-0.466,79.4
RAD50,1,0.474,91.3,0.728,84.2
RAD50,2,0.792,97.6,0.445,97.1
RAD50,3,-0.18,78.3,-0.303,94.8
SEC11A,1,-0.707,67.8,-0.382,83.8
SEC11A,2,-1.62,49.8,-1.07,73.7
SEC11A,3,-0.477,72.4,-0.638,95.7
MSH4,1,0.166,85.2,-0.591,111
MSH4,2,-0.138,79.1,-0.897,112
MSH4,3,1.89,120,1.06,101
ITIH5,1,0.161,85.1,0.332,87.1
ITIH5,2,0.812,98,1.03,83.6
ITIH5,3,-0.511,71.7,-0.677,95.8
PSG8,1,-0.71,67.8,0.257,70.8
PSG8,2,2,122,1.51,91.4
PSG8,3,0.851,98.8,0.151,106
RPS3AP5,1,-1.53,51.5,-1.03,75.5
RPS3AP5,2,-0.529,71.4,-0.518,91.4
RPS3AP5,3,-1.79,46.3,-0.544,59.7
FAAH,1,2.34,128,1.45,97.9
FAAH,2,0.648,94.8,0.457,93.9
FAAH,3,-2.44,33.4,-2.32,68.8
AKR1C8,1,-0.0508,80.9,-0.207,95.4
AKR1C8,2,-0.375,74.4,-0.799,103
AKR1C8,3,0.419,90.2,0.297,93.2
ETFB,1,1.49,112,0.754,102
ETFB,2,-0.479,72.4,-0.548,93.4
ETFB,3,0.638,94.6,0.268,98.5

Hits (from the list above):
target gene,siRNA no.,"total luciferase, z-score","total luciferase, % of control","luciferase per cell, z-score","viable cells, % of control"
PROSER1,2,4.1 (active),163,2.17,103
